Measured values reported in article PMC4198130.
No constants are given. Whether binding was seen depends on the method and setting. For some of these results: Binding calls can cover weak binding; strength is not graded here. For some of these results: Tags and fused reporters may be left off the sequences shown. For some of these results: In cells and extracts the contact can be indirect.

Legend:
[1] = target: GST fusion of an SH3 domain of intersectin (SH3 domain array) (human); experiment: peptide or protein array; TranSignal SH3 and WW Domain Arrays (Panomics/Affymetrix): purified GST fusions of human SH3 or WW domains immobilised on a membrane, in duplicate at 100 ng; His-PP1 in solution, detected with anti-His antibody (methods: purified His-PP1; results and legend: bacterial extract with the tagged protein); both purified
[2] = target: GST fusion of the SH3 domain of spectrin (Panomics) (human); experiment: as above
[3] = target: GST fusion of the SH3 domain of endophilin (SH3 domain array) (human); experiment: as above
[4] = target: GST fusion of the SH3 domain of spectrin (Panomics) (human); experiment: pull-down; GST fusions of SH3 or WW domains on glutathione sepharose beads, incubated with detergent-solubilized (2% TX-100) rat brain extract, RT 60 min; bound VGLUT1 by immunoblot, band intensity normalised to lysate; only the target purified

Binder	binding [1]	binding [2]	binding [3]	binding [4]
HDQLAGSDESEMEDEVEPPGAPPAPPPSYGATHSTVQ (domain or fragment, UniProt Q62634 513-549) [His-tagged VGLUT1 C-terminal peptide (amino acids 513-549)]	binds	binds	binds	
VGLUT1 from rat brain extract (protein, UniProt Q62634 1-560) MEFRQEEFRKLAGRALGRLHRLLEKRQEGAETLELSADGRPVTTHTRDPPVVDCTCFGLPRRYIIAIMSGLGFCISFGIRCNLGVAIVSMVNNSTTHRGGHVVVQKAQFNWDPETVGLIHGSFFWGYIVTQIPGGFICQKFAANRVFGFAIVATSTLNMLIPSAARVHYGCVIFVRILQGLVEGVTYPACHGIWSKWAPPLERSRLATTAFCGSYAGAVVAMPLAGVLVQYSGWSSVFYVYGSFGIFWYLFWLLVSYESPALHPSISEEERKYIEDAIGESAKLMNPVTKFNTPWRRFFTSMPVYAIIVANFCRSWTFYLLLISQPAYFEEVFGFEISKVGLVSALPHLVMTIIVPIGGQIADFLRSRHIMSTTNVRKLMNCGGFGMEATLLLVVGYSHSKGVAISFLVLAVGFSGFAISGFNVNHLDIAPRYASILMGISNGVGTLSGMVCPIIVGAMTKHKTREEWQYVFLIASLVHYGGVIFYGVFASGEKQPWAEPEEMSEEKCGFVGHDQLAGSDESEMEDEVEPPGAPPAPPPSYGATHSTVQPPRPPPPVRDY				no binding
